These are yes or no findings as the source states them, for the method shown. A result given as binding can be weak or reduced; the word gives no strength.

The values that follow come from PMC8580825, “Scaffolding protein CcmM directs multiprotein phase separation in β-carboxysome biogenesis” (Nature Structural & Molecular Biology, 2021).

The target of the assay is RbcL8 core complex of Rubisco (Synechococcus elongatus PCC 7942). As to the kind of experiment: turbidity assay; M58red (0.75 μM) and RbcL8 (0.25 μM) at 50 mM KCl in the presence of 0.5 μM and 1.0 μM Raf1 dimer; both purified. As to conditions: remark: other sources report otherwise.

B1: Rubisco assembly chaperone Raf1, Q31Q05 1-356 (protein)
chain: MREFTPTTLSEEERQELLGQLRRKEGRWLAWARACQTLLKNGLNPQTLFEATGFEPIQQNQITVAMQVYDSILRQDPPAHVRETYQEWGSDLLYELRELDQEQRSLCAQLALERKLDADQIREVAKATKDFCRLPKQPENFDRHPGDAVAHQCWRLAQERTDLTERSRLIARGLQFAQSAGARALIEALLLDLSGVPSRKPPMLPIYRLETEEDLPRLLPFAGTLPLSSSQIEAIAAVEAEGPFGLVSSPQGQQWLALPGWQAILTAEDPIACLEQIDRLPNAPEGPTEAVVLVVDRADRDWDADHFFLVEQAEGARIQWSPSAIAAPILGRLVLILRPKRVLDEAAIATPWQFEE
As for B1, the binding entry is given as “binds”.
